According to article doi:10.1101/2021.08.22.457263:

T1: M. catarrhalis transferrin binding protein B with C-terminal flag-tag (Mcat TbpB-flag) (Moraxella catarrhalis) (UniProt P0DTW7)
T1 sequence (chain, lipidated): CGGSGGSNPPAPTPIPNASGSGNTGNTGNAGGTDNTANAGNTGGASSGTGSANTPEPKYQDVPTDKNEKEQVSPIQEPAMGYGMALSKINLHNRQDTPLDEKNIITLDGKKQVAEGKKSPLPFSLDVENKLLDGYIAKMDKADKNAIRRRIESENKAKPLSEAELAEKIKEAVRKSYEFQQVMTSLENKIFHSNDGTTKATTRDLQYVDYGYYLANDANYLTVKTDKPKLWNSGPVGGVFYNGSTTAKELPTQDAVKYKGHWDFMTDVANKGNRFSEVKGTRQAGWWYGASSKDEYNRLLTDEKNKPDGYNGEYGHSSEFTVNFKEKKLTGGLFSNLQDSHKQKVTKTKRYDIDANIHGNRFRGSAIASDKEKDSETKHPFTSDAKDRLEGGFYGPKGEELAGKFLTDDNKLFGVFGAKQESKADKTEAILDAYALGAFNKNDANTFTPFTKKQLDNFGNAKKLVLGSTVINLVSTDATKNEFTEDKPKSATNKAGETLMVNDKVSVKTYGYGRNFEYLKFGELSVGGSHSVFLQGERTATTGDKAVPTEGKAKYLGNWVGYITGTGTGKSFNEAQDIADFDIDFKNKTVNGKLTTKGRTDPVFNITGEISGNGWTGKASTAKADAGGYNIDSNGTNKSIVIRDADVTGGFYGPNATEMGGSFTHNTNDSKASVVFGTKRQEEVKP

B1: His-tagged E. coli LolA, purified (protein, UniProt P61316 22-203)
chain: DAASDLKSRLDKVSSFHASFTQKVTDGSGAAVQEGQGDLWVKRPNLFNWHMTQPDESILVSDGKTLWFYNPFVEQATATWLKDATGNTPFMLIARNQSSDWQQYNIKQNGDDFVLTPKASNGNLKQFTINVGRDGTIHQFSAVEQDDQRSSYQLKSQQNGAVDAAKFTFTPPQGVTVDDQRK
B2: Periplasmic chaperone Skp of E. coli, endogenous (protein, UniProt P0AEU7 21-161)
chain: ADKIAIVNMGSLFQQVAQKTGVSNTLENEFKGRASELQRMETDLQAKMKKLQSMKAGSDRTKLEKDVMAQRQTFAQKAQAFEQDRARRSNEERGKLVTRIQTAVKSVANSQDIDLVVDANAVAYNSSDVKDITADVLKQVK

Target: T1, M. catarrhalis transferrin binding protein B with C-terminal flag-tag (Mcat TbpB-flag) (Moraxella catarrhalis)
Experiment: affinity purification with mass spectrometry

Binder | binding
B1 | binds
B2 | binds

Results are given in words; binding and its absence hold for the method and conditions named. In cells and extracts the contact can be indirect. A yes stands for co-enrichment or nearness to the bait. Other partners may have been found. Where a sequence is shown, tags or fusion partners need not be part of it.
